# Cleaved PARP in drug-treated melanoma cells

Data from the primary screen of doi:10.1371/journal.pone.0140310, rounded.

First drug in all entries: vincristine, 0.5 nM, CC[C@]1(O)C[C@H]2CN(CCc3c([nH]c4ccccc34)[C@@](C(=O)OC)(c3cc4c(cc3OC)N(C=O)[C@H]3[C@@](O)(C(=O)OC)[C@H](OC(C)=O)[C@]5(CC)C=CCN6CC[C@]43[C@@H]65)C2)C1

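Human melanoma cells were exposed to two drugs together for 72 h in 1,536-well plates and read by automated microscopy after fixing and staining. Values are the share of nuclei positive for cleaved PARP as a percentage of the same share in the DMSO control: 100 is the control level, higher means more apoptosis. Concentrations were fixed for each drug; these are the higher of two levels. No replicate spread is given; individual values may be noisy. Basal and induced levels differ widely between cell lines.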
An unselected part of the screen is shown.
A dash means that no value is listed here.

Partner | UACC-62 | UACC-257 | LOX IMVI | WM1745 | C32 | A2058 | WM3526 | A375
N#CC[C@H](C1CCCC1)n1cc(-c2ncnc3[nH]ccc23)cn1 at 5000 nM | 189 | 76.7 | 136 | 159 | 121 | 365 | 552 | 101
COC(=O)c1sccc1S(=O)(=O)Nc1ccc(Nc2ccccc2)cc1OC at 5000 nM | 253 | 124 | 157 | - | 142 | 3450 | 732 | 168
Cn1c(=O)n(-c2ccc(C(C)(C)C#N)cc2)c2c3cc(-c4cnc5ccccc5c4)ccc3ncc21 at 20 nM | 426 | 101 | 143 | 166 | 494 | 321 | 739 | 127
COc1ccc(-c2ccc3c(N4CCOCC4)nc(N4C[C@@H](C)O[C@@H](C)C4)nc3n2)cc1CO at 100 nM | 217 | 77.2 | 138 | - | 82.2 | 719 | 714 | 103
CC(C)(C)c1cnc(CSc2cnc(NC(=O)C3CCNCC3)s2)o1 at 50 nM | 134 | 138 | 113 | 114 | 472 | 681 | 901 | -
NC(=O)Nc1cc(-c2cccc(F)c2)sc1C(=O)N[C@H]1CCCNC1 at 100 nM | 223 | 174 | 67.8 | 143 | 1450 | 2740 | 4810 | -
O=C(Nc1ccccc1)c1cc([N+](=O)[O-])ccc1Cl at 10000 nM | 304 | 53.4 | 235 | - | 200 | 1630 | 2740 | 137
C=CCn1c(=O)c2cnc(Nc3ccc(N4CCN(C)CC4)cc3)nc2n1-c1cccc(C(C)(C)O)n1 at 100 nM | 162 | 173 | 800 | 237 | 797 | 2340 | 1840 | -
O=C(O)[C@@H]1[O][Sb](=[O])([O][Sb]2(=[O])[O][C@H]([C@H](O)CO)[C@H](O)[C@H](C(=O)O)[O]2)[O][C@H]([C@H](O)CO)[C@@H]1O (stereo not given in full) at 10000 nM | 222 | 37.9 | 95.4 | 86.4 | 189 | 377 | 259 | 125
Cn1cc(/C=C2\C(=O)Nc3cccnc32)c2ccccc21 at 2000 nM | 394 | 51.6 | 99.0 | - | 255 | 816 | 841 | 150
Cc1cc(N2CCOCC2)cc2[nH]c(-c3c(NC[C@@H](O)c4cccc(Cl)c4)cc[nH]c3=O)nc12 at 1000 nM | 208 | 155 | 99.8 | 222 | 1440 | 2040 | 1020 | -
OCc1c[nH]c2ccccc12 at 4000 nM | 263 | 32.4 | 63.2 | 105 | 192 | 151 | 359 | 202
O=C(O)c1ccc2c(c1)nc(Nc1cccc(Cl)c1)c1ccncc12 at 2000 nM | 263 | 145 | 207 | 134 | 242 | 166 | 784 | 170
CCCCCCCCc1ccc(CCC(N)(CO)CO)cc1 at 10000 nM | 229 | 97.7 | 296 | 1070 | 146 | 850 | 1950 | 45.6
Cc1cc(SCc2sc(-c3ccc(C(F)(F)F)c(F)c3)nc2C)ccc1OCC(=O)O at 10000 nM | 283 | 222 | 151 | - | 99.8 | 1240 | 564 | 42.4
COc1cc2c(Oc3ccc4[nH]c(C)cc4c3F)ncnc2cc1OCCCN1CCCC1 at 2000 nM | 173 | 41.6 | 229 | 90.6 | 611 | 739 | 655 | -
O=C(Oc1ccc([N+](=O)[O-])cc1)N1CCC(C(O)(c2ccc3c(c2)OCO3)c2ccc3c(c2)OCO3)CC1 at 5000 nM | 480 | 95.8 | 73.3 | - | 285 | 4870 | 1340 | 181
CCCS(=O)(=O)Nc1ccc(F)c(C(=O)c2c[nH]c3ncc(Cl)cc23)c1F at 400 nM | 426 | 118 | 108 | 101 | 512 | 62.2 | 566 | 248

Once more, the final 2:

| Partner | UACC-62 | UACC-257 | LOX IMVI | WM1745 | C32 | A2058 | WM3526 | A375 |
|---|---|---|---|---|---|---|---|---|
| O=C(Oc1ccc([N+](=O)[O-])cc1)N1CCC(C(O)(c2ccc3c(c2)OCO3)c2ccc3c(c2)OCO3)CC1 at 5000 nM | 480 | 95.8 | 73.3 | - | 285 | 4870 | 1340 | 181 |
| CCCS(=O)(=O)Nc1ccc(F)c(C(=O)c2c[nH]c3ncc(Cl)cc23)c1F at 400 nM | 426 | 118 | 108 | 101 | 512 | 62.2 | 566 | 248 |